From PubChem BioAssay AID540256 (National Center for Advancing Translational Sciences (NCATS), 2011)
Out of some 300,000 compounds screened, about 3,700 (1.2%) were called active. This list was built around the results that the source calls inconclusive (neither active nor inactive); the mix of calls is not that of the screen. Calls come from the whole dose curve; tested in HEK293 cells. Potencies beside an inconclusive call are fits to weak or partial responses and may not hold up.
Potency is the fitted concentration of half-maximal effect.

Experiment: qHTS for Inhibitors of binding or entry into cells for Lassa Virus; note: nearly all actives have a fitted effect of over 50% in size
Settings: Lassa virus pseudotype entry inhibition, cell reporter; series mostly up to 37.9 µM
With `COc1ccc(-c2nc(SCC(=O)Nc3cc(C)on3)n[nH]2)cc1` the Potency was inconclusive: 2.82 µM [inhibitor, full curve].
In the case of `COc1ccc(N=c2scc(-c3ccc(OC)cc3)n2CCO)cc1`, the Potency was inconclusive: 1.46 µM [inhibitor, partial curve, poor fit].
For `Cc1ccc(Nc2nc(N)nc(CN3CCc4ccccc4C3)n2)cc1`, the Potency was active: 23.1 µM.
With `CCCN1Cc2cccc(C(=O)Nc3ccc(CC)cc3)c2C1=O` the Potency was inconclusive: 1.16 µM [activator, full curve, poor fit].
With `COc1ccc2c(c1OC)C(=O)OC2C1c2c(cc3c(c2OC)OCO3)CCN1C` (stereo not drawn) the Potency was inconclusive: 16.4 µM [inhibitor, single point].
With `COC(=O)c1ccc(CSc2nc3c(cnn3-c3ccc(Cl)cc3)c(=O)[nH]2)o1` the Potency was inconclusive: 18.3 µM [activator, single point].
With `Cc1ccc(S(=O)(=O)N[C@H](C(=O)OCC(=O)NC(=O)Nc2ccc3c(c2)OCCO3)C(C)C)cc1` the Potency was inconclusive: 29.1 µM [inhibitor, single point].
For `C1CCCCCC(NCCN2CCNCC2)CCCCC1`, the Potency was inconclusive: 35.5 µM [inhibitor, single point].
With `BrCC1C[n+]2c(SCc3ccccc3)nc3sc4c(c3c2O1)CCCC4` (stereo not drawn) the Potency was “inactive”.
In the case of `Cc1nn(C)c(C)c1CN(C(=O)C1CCC(=O)N(C2CCCCCC2)C1)C(C)C` (stereo not drawn), the Potency was inconclusive: 6.31 µM [activator, full curve, poor fit].
In the case of `Cc1cc(=O)oc2cc(OC(=O)CCCCCN3C(=O)c4ccccc4C3=O)ccc12`, the Potency was inconclusive: 5.8 µM [inhibitor, partial curve, poor fit].
In the case of `CC(=O)Nc1sc2c(c1CN1CCCC1)CCCC2`, the Potency was “inactive”.
With `CCN(CC)c1ccc(/C=C2\C(=O)N(c3nnc(C)c(=O)[nH]3)N=C2C)cc1` the Potency was inconclusive: 35.5 µM [inhibitor, single point].
For `CCC(Oc1ccccc1)C(=O)Nc1cc(-c2ccccc2OC)nn1-c1ccccc1` (stereo not drawn), the Potency was “inactive”.
For `COc1nc(Nc2ccc(O)cc2)nc(OC(C(F)(F)F)C(F)(F)F)n1`, the Potency was inconclusive: 10.3 µM [inhibitor, partial curve].
For `CC(=O)NCCc1nc2cc(NC(=O)c3ccccc3Cl)ccc2n1C`, the Potency was inconclusive: 0.891 µM [activator, partial curve, poor fit].
For `O=C(/C=C/c1ccccc1)CC(O)(c1ccccc1)C(F)(F)F` (stereo not drawn), the Potency was inconclusive: 29.1 µM [inhibitor, single point].
In the case of `CCCCN(C)C(=O)C1CCC(CNS(=O)(=O)c2ccc(Cl)cc2)CC1` (stereo not drawn), the Potency was “inactive”.
